Some entries share one result that the patent states for a list of compounds. Some ranges recur; such a range may be that of the whole group of compounds.
What follows are compounds tested on INS-1 cells (assay: INS-1 cell survival after Tm treatment (CellTiter-Glo, intracellular ATP)). Details: 6-series versus 5-series counterpart.
Type: cell-based, rat
Method: A structure-activity-relationship (SAR) study was thus conducted to improve the weak potency of lead compound 5a. Newly synthesized or commercially available compounds were tested for their β-cell-protective activity against ER stress in rat INS-1 β-cells. […] Maximum activity value in the tables is reported as % rescue from Tm (0.1 μg/mL)-induced reduction of cell viability. The values for Tm treatment alone and control (DMSO, without Tm) treatment are designated as 0% and 100%, respectively in all tables. EC50 values (the concentrations that reach half-maximal activity) for INS-1 cell viability were calculated with GraphPad Prism from the data of ten 2-fold serial titration points in all tables. All experiments were performed in triplicate in all tables.
INS-1 cells or βTC6 cells were seeded at 3×10^3 cells/well in a 384-well plate and treated with compounds at the indicated concentrations. After 3 d treatment, the medium was aspirated and 20 μL/well of CellTiter-Glo reagent (Promega, WI, USA) was added for the detection of intracellular ATP levels. Cell viability was measured with an EnVision multilabel plate reader (PerkinElmer, MA, USA).
In the case of OCC1CCCCN1c1nc(NCCc2ccccc2Cl)c2ccccc2n1 (racemic) [Compound 6l], the “EC50 improvement over 2-(hydroxymethyl)pyrrolidin-1-yl counterpart” value is reported as 2-3 fold. With OCC1CCCCN1c1nc(NCCc2ccccc2)c2ccccc2n1 (stereo not shown) [Compound 6a] the “EC50 improvement over 2-(hydroxymethyl)pyrrolidin-1-yl counterpart” value was 2-3 fold. OCC1CCCCN1c1nc(NCCc2ccc(Cl)cc2)c2ccccc2n1 (stereo not shown) [Compound 6c] was tested, and the “EC50 improvement over 2-(hydroxymethyl)pyrrolidin-1-yl counterpart” value was 2-3 fold. With OCC1CCCCN1c1nc(NCCc2ccc(Br)cc2)c2ccccc2n1 (stereo not shown) [Compound 6d] the “EC50 improvement over 2-(hydroxymethyl)pyrrolidin-1-yl counterpart” value was 2-3 fold. For Cc1ccc(CCNc2nc(N3CCCCC3CO)nc3ccccc23)cc1 (stereo not shown) [Compound 6e], the “EC50 improvement over 2-(hydroxymethyl)pyrrolidin-1-yl counterpart” value was 2-3 fold. In the case of OCC1CCCCN1c1nc(NCCc2cccc(Cl)c2)c2ccccc2n1 (stereo not shown) [Compound 6h], the “EC50 improvement over 2-(hydroxymethyl)pyrrolidin-1-yl counterpart” value is reported as 2-3 fold. For COc1ccccc1CCNc1nc(N2CCCCC2CO)nc2ccccc12 (stereo not shown) [Compound 6n], the “EC50 improvement over 2-(hydroxymethyl)pyrrolidin-1-yl counterpart” value was 2-3 fold.
